Measurements published in PubChem BioAssay AID2685 (National Center for Advancing Translational Sciences (NCATS), 2010).
The other results are listed elsewhere or left out. Further columns of the screen follow, without active or inactive calls. Most of these compounds were active or inconclusive in the main read-out, so they are no random draw. Potencies come from curve fits of mixed quality, noted in brackets.

Assay: qHTS Assay for Lipid Storage Modulators in Drosophila S3 Cells;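 on cell number change: cells counted by Cell Tracker Red CMTPX staining in the red channel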
Conditions: BODIPY lipid droplet fluorescence, 18-24 h; for cell number change: measured here: cell count max response, cells fed with added oleic acid
Method in brief: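 Drosophila S3 cells loaded with oleic acid (400 uM, as added) and compounds at several concentrations; lipid droplets imaged by 488-nm laser-scanning cytometry, 500–530 nm intensity and object ratio to cell channel. Percent activity normalized to 20 uM Triacsin C.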

[1] = measured here: lipid fluorescence (Fed channel) AC50, cells fed with added oleic acid
[2] = measured here: cell number channel AC50, cells fed with added oleic acid

SMILES	cell number change [%]	AC50 [1]	AC50 [2]
O=C(Cc1ccccc1[N+](=O)[O-])OCN1C(=O)c2ccccc2C1=O	-19.9		
NC(=O)CSc1nc(-c2ccccc2)nc2c1CCCC2	2.91	0.00651 µM [falling, full curve, poor fit]	
COc1ccc(NC(=O)c2cc(C)no2)cc1	-16.2		
CC(C)OCCCNC(=O)CN1CCN(Cc2ccc(Cl)cc2)C1=O	16.7	1.03 µM [falling, full curve]	
COc1ccc(-c2cc(C(F)(F)F)nc(S(C)(=O)=O)n2)cc1OC	-55.8		29.1 µM [falling, single point]
C/C(=N/N1CCN(c2ccccc2)CC1)c1cccc([N+](=O)[O-])c1	30.4	18.4 µM [rising, single point]	18.4 µM [rising, single point]
COC(=O)Nc1nc(Sc2ncc(C(F)(F)F)cc2Cl)n[nH]1	41.4	20.6 µM [falling, single point]	18.4 µM [rising, single point]
O=S(=O)(Nc1ccc(S(=O)(=O)Nc2ncccn2)cc1)c1ccc(Cl)cc1	-6.35		
S=C(NCc1ccc2c(c1)OCO2)Nc1ccc(-c2nc3ccccc3[nH]2)cc1	2.99	1.03 µM [rising, full curve]	2.31 µM [rising, partial curve]
Cc1ccc2nc(-c3ccccn3)cc(C(=O)NC(C)C(C)(C)C)c2c1 (stereo unspecified)	-112		
CC(=O)NCCCc1nc2ccccc2n1Cc1cc(C)ccc1C	-16	0.00651 µM [falling, full curve]	0.00517 µM [falling, full curve]
O=C(COc1ncnc2ccccc12)N1CCN(c2ccccc2)CC1	22.2	29.1 µM [rising, single point]	
COC(=O)c1cc(C(=O)OC)cc(N2C(=O)CC(N3CCN(c4ccccc4)CC3)C2=O)c1 (stereo unspecified)	-13.3		
Cc1ccc(C(=O)/C=C/c2ccc3ncccc3c2)cc1	-54		32.6 µM [falling, single point]
Cc1ccc(C)c(NC(=O)CN(C)C(=O)c2oc3c(Cl)cccc3c2C)c1	14.6	20.6 µM [rising, partial curve]	
CCOc1ccc(NC(=O)c2ccc3c(c2)N(Cc2ccc(F)cc2)C(=O)CS3=O)cc1 (stereo unspecified)		2.31 µM [rising, partial curve]	1.84 µM [rising, partial curve, poor fit]
COc1ccc(/C=N/NC(=O)c2cccnc2)c2ccccc12	-16.7		7.31 µM [falling, single point]
Cc1ccc(S(=O)(=O)N2CCN(C(=O)c3cc(-c4cccs4)nn3-c3ccccc3)CC2)cc1		20.6 µM [rising, single point]	6.51 µM [falling, single point]
O=c1[nH]c(=S)n(C2CCCCC2)c(O)c1C=NCCN1CCOCC1	-51.7	29.1 µM [falling, single point]	29.1 µM [falling, single point]
Cc1ccc(NC(=O)Cc2ccc3c(c2)CCCC3)cc1C		0.651 µM [rising, full curve]	4.11 µM [rising, single point]
C#CCSc1nccc(-c2nn(-c3ccc(C)cc3)ccc2=O)n1	-25.9		

SMILES	cell number change [%]	AC50 [1]	AC50 [2]
CCOc1ccc(C(=O)Nc2nccs2)cc1[N+](=O)[O-]	4.65	6.51 µM [rising, single point]	
Cc1ccc(Cl)cc1N1CCN(S(=O)(=O)c2c(C)[nH]c(=O)[nH]c2=O)CC1	35.1		11.6 µM [rising, partial curve]
COc1cccc(CCNC(=O)C2CCC(=O)N(C3CC3)C2)c1OC (stereo unspecified)	5.63	0.58 µM [rising, single point]	
CCCCC(CCC(=O)O)(C(=O)OCC)c1csc(N)n1 (stereo unspecified)	30.5		0.0731 µM [rising, full curve, poor fit]
COc1cc(OC)cc(C(=O)N[C@H](C(=O)OCn2nnc3ccccc3c2=O)C(C)C)c1		5.17 µM [rising, single point]	4.61 µM [rising, single point]
COc1cccc(N=Nc2c(=O)[nH]n3c(C)cc(C)nc23)c1	27.5	16.4 µM [falling, single point]	
Cc1ccc(S(=O)(=O)N2CCC(NC(=O)c3cccc(F)c3)CC2)cc1	32.7		0.0058 µM [rising, full curve, poor fit]
COc1ccccc1NC(=O)Cc1nnc(SCC(=O)NC2CCCCC2)n1C	16.2		0.206 µM [rising, full curve, poor fit]
CCCCOc1ccc(OCCNC(=O)C2CCCN2C(=O)Nc2ccccc2)cc1 (stereo unspecified)	18.1		
O=C1Nc2ccc(S(=O)(=O)N3CCCC3)c3cccc1c23	-6.55		
COc1ccc(NC(=O)COC(=O)c2cc(SC)ccc2Cl)c(OC)c1	125	29.1 µM [rising, single point]	29.1 µM [rising, single point]
O=C(Cn1c(CO)nc2ccccc21)NCCc1ccc(F)cc1	86.2	6.51 µM [rising, partial curve]	5.8 µM [rising, partial curve]
O=S(=O)(Nc1ccccn1)c1cccs1	-24.7	0.82 µM [falling, full curve, poor fit]	
COc1cccc(CNc2ncnc3cc(Cl)ccc23)c1	-7.17	18.4 µM [falling, single point]	
Cc1sc(NC(=O)CSC2=NCCS2)nc1-c1ccccc1	-21.8	0.164 µM [falling, full curve, poor fit]	
CCC(=O)Nc1ccc(C(=O)N/N=C/c2cc(Br)c(OC)cc2OC)cc1	-8.22	1.84 µM [rising, partial curve, poor fit]	
CCOc1ccc(N(CC(=O)Nc2nccs2)S(=O)(=O)c2c(C)[nH]c(=O)[nH]c2=O)cc1	-35.5	2.06 µM [rising, partial curve]	2.06 µM [rising, partial curve, poor fit]
Cc1ccc(SCc2noc(-c3c(C)noc3C)n2)cc1	-14.7	0.731 µM [falling, full curve]	
Cc1onc(-c2ccccc2)c1C(=O)N1CCN(c2ccccn2)CC1	18.9		
Cc1cc(Br)ccc1NC(=O)CNC(=O)CN(C)C1CCS(=O)(=O)C1 (stereo unspecified)	43.8		1.64 µM [rising, full curve, poor fit]
CCOC(=O)c1ccc(N2C(=O)CC(Sc3nc(C)cc(C)n3)C2=O)cc1 (stereo unspecified)	14.4	6.51 µM [rising, single point]	

Looked up one by one from above, 5 records:
SMILES	cell number change [%]	AC50 [1]	AC50 [2]
Cc1ccc(Cl)cc1N1CCN(S(=O)(=O)c2c(C)[nH]c(=O)[nH]c2=O)CC1	35.1		11.6 µM [rising, partial curve]
O=C(Cn1c(CO)nc2ccccc21)NCCc1ccc(F)cc1	86.2	6.51 µM [rising, partial curve]	5.8 µM [rising, partial curve]
CCOc1ccc(N(CC(=O)Nc2nccs2)S(=O)(=O)c2c(C)[nH]c(=O)[nH]c2=O)cc1	-35.5	2.06 µM [rising, partial curve]	2.06 µM [rising, partial curve, poor fit]
COc1cccc(N=Nc2c(=O)[nH]n3c(C)cc(C)nc23)c1	27.5	16.4 µM [falling, single point]	
COc1cccc(CCNC(=O)C2CCC(=O)N(C3CC3)C2)c1OC (stereo unspecified)	5.63	0.58 µM [rising, single point]	

Continuation.

SMILES	cell number change [%]	AC50 [1]	AC50 [2]
Cc1c(Cl)cccc1NC(=O)N1CCN(C(=O)c2ccco2)CC1	-16.3		0.731 µM [falling, single point]
O=C(NNC(=O)c1cc(-c2ccccc2Cl)nc2ccccc12)c1csc(N2CCOCC2)n1		1.84 µM [rising, partial curve, poor fit]	
CCN(CC(=O)Nc1c(F)cccc1F)C(=O)CCc1c[nH]c2ccccc12	20.6		
Cc1cc(C)cc(NC(=O)C2C3C=CC4(O3)C2C(=O)N(CCN2CCCCC2)C4C(=O)NC2CCCCC2)c1 (stereo unspecified)	24.4	3.26 µM [falling, partial curve, poor fit]	
Clc1cccc(OCCCCCN2CCOCC2)c1	-18.9	14.6 µM [falling, partial curve]	
O=C(c1cccc(C(F)(F)F)c1)C1CCCN(C(=O)c2cc(C3CC3)[nH]n2)C1 (stereo unspecified)	-20.3	4.61 µM [falling, single point]	
COc1ccccc1Cc1nc(-c2ccc(C)cc2)no1	142	3.26 µM [rising, full curve]	3.66 µM [rising, full curve]
CC(=O)c1cccc(NC(=O)COC(=O)c2ccc3c(c2)OCCO3)c1	30.3	29.1 µM [rising, single point]	
COC(=O)CSc1cc(C)nc(SC)n1	-11.5	3.66 µM [falling, full curve]	
CCC1(c2ccccc2)NC(=S)N(c2ccc(C)c(C)c2)N1 (stereo unspecified)	-12.1	5.17 µM [falling, partial curve, poor fit]	
CCn1c(=S)sc2c(=O)n(CC(=O)Nc3cccc(Cl)c3)c(C)nc21	8.06	14.6 µM [falling, partial curve, poor fit]	
CCN(CC)S(=O)(=O)c1ccc(Nc2ccc(-c3ccc4c(c3)OCCO4)nn2)cc1	-44.5		8.2 µM [falling, partial curve, poor fit]
CCOc1ccc(-c2nnn(CC(=O)c3ccc4c(c3)OCCO4)n2)cc1OCC	-25.3		
CCOc1cc(/C=C2/SC(=S)NC2=O)ccc1OC(=O)c1ccco1	4.24		
Cc1ccc2c(c1)N(CC(=O)N1CCc3ccccc3C1)C(=O)CO2	-5.8		
CC(=O)Nc1cc(NC(C)=O)cc(C(=O)OCC(=O)N2CC(C)OC(C)C2)c1 (stereo unspecified)		5.8 µM [falling, partial curve]	
CCOC(=O)C1CCCN(c2c(NCCCN(C)Cc3ccccc3)c(=O)c2=O)C1 (stereo unspecified)	-42.6	11.6 µM [falling, partial curve, poor fit]	
OC(CNCc1ccccc1)COCc1ccc(Cl)cc1 (stereo unspecified)	-41.5		32.6 µM [falling, single point]
Cc1cc(C)cc(N)c1	4.86	23.1 µM [rising, single point]	
